Experimental data: PubChem BioAssay AID720505 (Drosophila RNAi Screening Center, 2013)
Purpose: 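Knock-downs that reduce calcium influx once internal stores are emptied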 (primary screen). Cell system: Drosophila S2R+ cells. Reagents: long dsRNA against Drosophila genes. Challenge: thapsigargin (2 µM) in calcium-free buffer to empty internal stores, then 2 mM calcium added back. Detection: 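Fluo-4 signal in 384-well plates read on a FLIPR after thapsigargin (2 µM, calcium-free) store depletion and 2 mM calcium add-back; unnormalised mean endpoint per well; screen run twice, selected wells retested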. Reading the numbers: calcium signal and retest calcium signal: higher = more calcium entry after store depletion. Rule for the call: 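Knock-downs counted as hits when calcium entry dropped relative to STIM1 positive and Rho1 negative controls present on each plate; roughly 1500 genes called, with reductions of differing size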. Calls: active = called as lowering calcium entry; inactive = not called.
The screen tested about 20,000 reagents; shown is a random part of those with a known target gene and a result. Over the whole deposit, about 2,100 (10%) are marked active. 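Raw plate signals without normalisation; calls rest on control-based scores that were not deposited; replicate 2 separates called from uncalled poorly.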 Entries without a mark were called inactive. Names joined by + are all predicted targets of the reagent. The record does not give: the amount of reagent, the time to read-out.

| gene | amplicon | calcium signal, replicate 1 | calcium signal, replicate 2 | retest calcium signal, replicate 1 | retest calcium signal, replicate 2 |
| --- | --- | --- | --- | --- | --- |
| kdn | DRSC18328 | 160 | 99 | – | – |
| Dis3 | DRSC16034 | 125 | 173 | – | – |
| CG10126 | DRSC14191 | 98.9 | 103 | – | – |
| Ugt37E1 | DRSC02248 | 131 | 102 | – | – |
| Boh2 | DRSC02777 | 190 | 178 | – | – |
| CG30274 | DRSC04171 | 103 | 132 | – | – |
| RpL22-like | DRSC04582 | 88.5 | 132 | – | – |
| insb | DRSC06995 | 133 | 127 | – | – |
| CG31789 | DRSC01645 | 75.9 | 138 | – | – |
| CG6937 | DRSC16140 | 122 | 80.9 | – | – |
| ssh | DRSC16730 | 152 | 129 | – | – |
| fs(1)M3 | DRSC18381 | 176 | 127 | – | – |
| CG30431 | DRSC04902 | 140 | 106 | – | – |
| CG30431 | DRSC04904 | 169 | 264 | – | – |
| CG31200 | DRSC15285 | 137 | 166 | – | – |
| PolA2 | DRSC16641 | 143 | 157 | – | – |
| hth | DRSC16967 | 141 | 89.6 | – | – |
| Ir76a | DRSC10987 | 103 | 111 | – | – |
| Acp53C14c | DRSC05626 | 78 | 138 | – | – |
| CG14731 | DRSC14952 | 154 | 87.2 | – | – |
| Zip42C.1 | DRSC05003 | 142 | 162 | – | – |
| CG13838 | DRSC14688 | 244 | 151 | 5383 | 166 |
| CG33120 | DRSC02073 | 110 | 109 | – | – |
| NaPi-III | DRSC10893 | 79.6 | 135 | – | – |
| NaPi-III | DRSC10894 | 103 | 110 | – | – |
| NaPi-III | DRSC22953 | 99.7 | 165 | – | – |
| Hydr1 | DRSC07063 | 73.4 | 131 | – | – |
| CG13117 | DRSC02215 | 181 | 125 | – | – |

Single entries from the list.
Boh2 [DRSC02777], calcium signal, replicate 1 → 190
Value for CG6937 [DRSC16140] under “calcium signal, replicate 1”: 122
CG30431 [DRSC04902], calcium signal, replicate 2 → 106
Under “calcium signal, replicate 2”, PolA2 [DRSC16641] reads 157
Result of Ugt37E1 [DRSC02248] in “calcium signal, replicate 1”: 131
Result of RpL22-like [DRSC04582] in “calcium signal, replicate 2”: 132

Next records:
| gene | amplicon | calcium signal, replicate 1 | calcium signal, replicate 2 | retest calcium signal, replicate 1 | retest calcium signal, replicate 2 |
| --- | --- | --- | --- | --- | --- |
| Syt14 | DRSC12331 | 84.5 | 193 | – | – |
| fuss | DRSC17200 | 114 | 129 | – | – |
| fuss | DRSC21452 | 161 | 75.7 | – | – |
| CG11920 | DRSC14439 | 182 | 240 | – | – |
| Diap2 | DRSC07444 | 126 | 132 | – | – |
| CG42249 | DRSC19383 | 103 | 82.8 | – | – |
| CG42249 | DRSC19826 | 109 | 120 | – | – |
| mxt | DRSC00551 | 79.7 | 129 | – | – |
| Orcokinin | DRSC04202 | 136 | 220 | – | – |
| ND-B15 | DRSC06199 | 131 | 182 | – | – |
| ProtB | DRSC03373 | 81.4 | 139 | – | – |
| Uros2 | DRSC16505 | 159 | 209 | – | – |
| RIOK2 | DRSC14413 | 252 | 123 | – | – |
| CG6865 | DRSC10732 | 101 | 113 | – | – |
| CG17110 | DRSC15173 | 242 | 159 | – | – |
| CG17652 | DRSC00511 | 184 | 143 | – | – |
| Mob4 | DRSC04993 | 170 | 126 | – | – |
| GstE14 | DRSC06881 | 110 | 156 | – | – |
| stl | DRSC04396 | 70.7 (active) | 159 | – | – |
| CG30491 | DRSC21472 | 199 | 120 | – | – |
| NFAT | DRSC18991 | 81.1 | 74 | – | – |
| NFAT | DRSC19393 | 47.7 (active) | 78.3 | – | – |
| asRNA:CR43259 + CG31089 | DRSC15934 | 309 | 167 | – | – |
| TM4SF | DRSC04661 | 97.3 | 129 | – | – |
| frm | DRSC09753 | 67.6 (active) | 128 | 124 | 95.1 |
| dpr4 | DRSC14531 | 153 | 127 | – | – |
| dpr4 | DRSC14929 | 187 | 108 | – | – |
| LpR1 | DRSC15665 | 109 | 94.6 | – | – |
| LpR1 | DRSC15669 | 144 | 133 | – | – |
| LpR1 | DRSC15670 | 155 | 121 | – | – |
